The source of these data is PMC1852583.

Amino acid sequences for entries named in this document (tags omitted).
UniProt Q9JHL4: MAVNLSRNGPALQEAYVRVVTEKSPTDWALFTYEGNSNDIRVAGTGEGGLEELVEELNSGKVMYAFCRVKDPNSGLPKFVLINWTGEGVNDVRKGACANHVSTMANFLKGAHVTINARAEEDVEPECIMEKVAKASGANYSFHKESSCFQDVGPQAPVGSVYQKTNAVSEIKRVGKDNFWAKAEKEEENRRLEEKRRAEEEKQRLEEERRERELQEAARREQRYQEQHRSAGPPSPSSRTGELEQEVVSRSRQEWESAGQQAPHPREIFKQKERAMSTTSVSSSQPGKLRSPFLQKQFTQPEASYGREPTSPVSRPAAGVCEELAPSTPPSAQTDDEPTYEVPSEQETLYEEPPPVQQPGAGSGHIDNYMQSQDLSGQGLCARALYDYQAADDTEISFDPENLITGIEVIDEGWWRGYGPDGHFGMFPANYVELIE
UniProt O08816: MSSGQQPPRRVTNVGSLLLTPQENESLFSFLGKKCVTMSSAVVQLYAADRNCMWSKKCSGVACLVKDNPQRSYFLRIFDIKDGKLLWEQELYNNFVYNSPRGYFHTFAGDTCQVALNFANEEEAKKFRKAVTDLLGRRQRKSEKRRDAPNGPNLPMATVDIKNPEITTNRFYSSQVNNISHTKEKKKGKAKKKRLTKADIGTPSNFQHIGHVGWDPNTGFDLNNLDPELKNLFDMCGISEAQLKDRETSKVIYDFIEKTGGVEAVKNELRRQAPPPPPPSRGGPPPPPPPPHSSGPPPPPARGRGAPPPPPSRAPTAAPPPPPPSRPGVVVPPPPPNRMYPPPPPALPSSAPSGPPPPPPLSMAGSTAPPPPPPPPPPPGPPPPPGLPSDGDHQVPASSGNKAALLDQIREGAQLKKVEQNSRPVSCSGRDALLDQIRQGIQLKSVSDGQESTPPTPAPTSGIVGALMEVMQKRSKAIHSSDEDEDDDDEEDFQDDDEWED

For this assay, the target named is endogenous Abp1 from rat brain (rat (endogenous in rat brain)) (UniProt Q9JHL4). Description: co-IP; affinity-purified rabbit anti-Abp1 antibodies or unrelated rabbit IgG, rat brain extracts (1 mg each), 100 mM NaCl; anti-N-WASP immunoblot. (In western blotting, separated proteins are transferred to a membrane and probed.)

No constants are given. Whether binding was seen depends on the method and setting. In cells and extracts the contact can be indirect. Some entries that bind do so weakly or less than the wild type.

For the substance “endogenous N-WASP from rat brain (from UniProt O08816 1-501)”, the binding result is “binds”.
